Experimental data from article PMC11417337.

Chains of the proteins cited; added tags and fusions are not shown. Lines headed by an entry give the natural chain unless they say otherwise; changes in a name come on top. Residues count along the entry.
UniProt P48678, residues 1-647: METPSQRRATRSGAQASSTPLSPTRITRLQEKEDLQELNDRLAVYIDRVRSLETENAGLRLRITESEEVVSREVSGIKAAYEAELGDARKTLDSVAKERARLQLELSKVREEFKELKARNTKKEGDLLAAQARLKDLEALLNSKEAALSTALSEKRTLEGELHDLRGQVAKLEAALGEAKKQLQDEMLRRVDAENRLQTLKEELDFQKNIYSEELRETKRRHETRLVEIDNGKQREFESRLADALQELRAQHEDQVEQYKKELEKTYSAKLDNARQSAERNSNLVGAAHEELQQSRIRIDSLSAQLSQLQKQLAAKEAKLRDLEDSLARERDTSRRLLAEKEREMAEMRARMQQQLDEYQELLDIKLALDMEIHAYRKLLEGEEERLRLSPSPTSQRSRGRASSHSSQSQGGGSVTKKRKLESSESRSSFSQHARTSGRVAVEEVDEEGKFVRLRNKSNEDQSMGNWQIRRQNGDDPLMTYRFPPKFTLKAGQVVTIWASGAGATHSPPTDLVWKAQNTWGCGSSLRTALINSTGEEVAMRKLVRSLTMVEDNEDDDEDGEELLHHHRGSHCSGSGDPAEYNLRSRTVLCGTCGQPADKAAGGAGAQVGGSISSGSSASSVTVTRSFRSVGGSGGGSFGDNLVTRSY
UniProt Q61033: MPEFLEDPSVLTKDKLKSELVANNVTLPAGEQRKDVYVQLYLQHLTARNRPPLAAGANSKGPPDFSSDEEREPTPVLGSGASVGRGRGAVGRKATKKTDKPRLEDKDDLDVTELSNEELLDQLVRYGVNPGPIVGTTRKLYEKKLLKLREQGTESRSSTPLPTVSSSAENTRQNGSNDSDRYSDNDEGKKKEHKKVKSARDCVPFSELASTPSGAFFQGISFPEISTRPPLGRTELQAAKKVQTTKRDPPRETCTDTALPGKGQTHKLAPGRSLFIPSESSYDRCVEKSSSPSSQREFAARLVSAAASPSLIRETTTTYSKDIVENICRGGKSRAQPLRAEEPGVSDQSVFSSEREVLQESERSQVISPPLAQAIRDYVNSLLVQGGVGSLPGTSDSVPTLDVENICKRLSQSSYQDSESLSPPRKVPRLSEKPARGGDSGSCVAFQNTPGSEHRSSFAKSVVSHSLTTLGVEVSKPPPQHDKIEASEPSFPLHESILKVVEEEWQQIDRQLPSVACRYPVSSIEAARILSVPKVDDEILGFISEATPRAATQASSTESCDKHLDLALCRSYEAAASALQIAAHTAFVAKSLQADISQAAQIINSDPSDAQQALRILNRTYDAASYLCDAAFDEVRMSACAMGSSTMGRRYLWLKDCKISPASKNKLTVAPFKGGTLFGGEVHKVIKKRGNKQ

Biological target: lamin A/C (mouse (endogenous in mouse dermal fibroblasts)) (UniProt P48678)
Experiment: co-IP; endogenous lamin A/C immunoprecipitated with the E1 anti-lamin A/C antibody from the soluble fraction of mouse dermal fibroblasts (IP buffer: 20 mM Tris-HCl pH 7.5, 150 mM NaCl, 2 mM EGTA, 2 mM MgCl2, 0.5% NP-40, 1 mM DTT, benzonase), western blot; Figure 4D: untransfected or control siRNA cells; Figure 5D: cells untreated or treated with rapamycin

binding: no binding
Substance: LAP2α ΔLEM-like-LEM∗ mutant (from UniProt Q61033) (domain or fragment)

These are yes or no findings as the source states them, for the method shown. Binding seen in cells or lysates may run through a third protein.
